Test results reported in publication PMC11295518.
These are yes or no findings as the source states them, for the method shown. In cells and extracts the contact can be indirect. Some entries that bind do so weakly or less than the wild type.

By UniProt entry, the sequences of proteins in these tests, tags left out.
UniProt P09651: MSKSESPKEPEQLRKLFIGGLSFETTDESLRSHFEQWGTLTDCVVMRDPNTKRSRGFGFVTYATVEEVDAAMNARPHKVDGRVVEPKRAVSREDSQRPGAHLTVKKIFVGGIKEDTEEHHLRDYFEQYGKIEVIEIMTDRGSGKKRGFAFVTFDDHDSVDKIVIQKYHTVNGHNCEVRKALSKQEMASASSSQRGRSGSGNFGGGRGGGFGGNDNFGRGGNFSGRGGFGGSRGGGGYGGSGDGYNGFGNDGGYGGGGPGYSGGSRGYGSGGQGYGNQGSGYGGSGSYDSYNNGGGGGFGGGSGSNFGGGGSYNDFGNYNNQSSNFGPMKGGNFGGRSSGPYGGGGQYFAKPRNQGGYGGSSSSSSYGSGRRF
UniProt Q96SB4: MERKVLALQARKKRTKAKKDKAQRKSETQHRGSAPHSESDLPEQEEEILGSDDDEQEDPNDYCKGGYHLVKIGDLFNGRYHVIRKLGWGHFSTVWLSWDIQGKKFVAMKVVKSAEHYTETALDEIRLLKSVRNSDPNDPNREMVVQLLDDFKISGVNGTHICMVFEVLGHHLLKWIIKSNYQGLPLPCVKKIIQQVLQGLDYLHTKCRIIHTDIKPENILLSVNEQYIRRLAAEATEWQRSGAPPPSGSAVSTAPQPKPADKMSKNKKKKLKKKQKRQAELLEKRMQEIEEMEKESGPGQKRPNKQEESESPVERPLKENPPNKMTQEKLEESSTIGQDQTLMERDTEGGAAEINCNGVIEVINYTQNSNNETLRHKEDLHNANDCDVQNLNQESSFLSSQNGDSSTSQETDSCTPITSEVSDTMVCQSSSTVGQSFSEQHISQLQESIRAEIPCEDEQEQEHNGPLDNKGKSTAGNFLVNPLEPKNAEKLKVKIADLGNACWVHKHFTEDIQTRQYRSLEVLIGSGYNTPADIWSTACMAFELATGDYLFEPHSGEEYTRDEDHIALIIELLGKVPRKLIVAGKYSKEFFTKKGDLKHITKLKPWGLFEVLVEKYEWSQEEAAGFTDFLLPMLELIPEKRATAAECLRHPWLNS

Target: Heterogeneous nuclear ribonucleoprotein A1 (human (endogenous in A549)) (UniProt P09651)
Test: co-IP; endogenous co-immunoprecipitation in A549 cells with anti-SRPK1 antibody or, vice versa, anti-hnRNPA1 antibody; western blot; IgG as negative control

“Serine–arginine protein kinase 1 (from UniProt Q96SB4 1-655)” was tested, and the binding was “binds”.
